Experimental data as given in PMC9321427.
These are yes or no findings as the source states them, for the method shown. Binding seen in cells or lysates may run through a third protein. Some results given as binding are weak or reduced against the parent protein; the word gives no strength.

Amino acid sequences for entries named in this document (tags omitted). Residues count along the entry.
UniProt P55085, residues 37-397: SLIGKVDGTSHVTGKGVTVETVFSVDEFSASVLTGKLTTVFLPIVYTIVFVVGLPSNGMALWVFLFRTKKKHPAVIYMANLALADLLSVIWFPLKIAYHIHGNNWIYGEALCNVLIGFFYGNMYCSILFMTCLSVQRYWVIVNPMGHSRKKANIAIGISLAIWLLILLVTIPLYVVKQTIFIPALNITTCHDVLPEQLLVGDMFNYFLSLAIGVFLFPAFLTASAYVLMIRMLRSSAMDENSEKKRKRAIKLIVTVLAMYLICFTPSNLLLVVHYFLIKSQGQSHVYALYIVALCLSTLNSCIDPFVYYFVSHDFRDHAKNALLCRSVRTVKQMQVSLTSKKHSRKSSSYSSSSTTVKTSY
UniProt P49407: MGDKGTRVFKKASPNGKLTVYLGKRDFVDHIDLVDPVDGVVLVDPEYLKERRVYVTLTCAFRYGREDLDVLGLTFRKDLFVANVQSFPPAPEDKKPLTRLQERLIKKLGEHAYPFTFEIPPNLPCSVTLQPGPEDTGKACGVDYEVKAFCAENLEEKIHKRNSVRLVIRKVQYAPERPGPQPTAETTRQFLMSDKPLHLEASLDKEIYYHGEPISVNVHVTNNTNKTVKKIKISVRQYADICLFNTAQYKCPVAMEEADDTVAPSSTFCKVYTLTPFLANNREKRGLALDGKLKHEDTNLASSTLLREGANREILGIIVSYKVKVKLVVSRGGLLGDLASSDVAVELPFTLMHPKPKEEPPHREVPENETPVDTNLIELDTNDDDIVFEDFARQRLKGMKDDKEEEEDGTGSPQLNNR

Target: PAR2-Rluc8 cleaved after Arg36 by trypsin or GzmK (tethered ligand exposed) (human) (UniProt P55085)
Experiment: FRET or BRET; BRET between PAR2-Rluc8 and β-arrestin1-YFP in transfected HEK 293 cells; cells in Hank's Buffered Salt Solution pH 7.4, 37°C, treated with trypsin (10 nM) or GzmK (100 nM) for 2 h, then 5 μM coelenterazine

“β-arrestin1-YFP (from UniProt P49407 1-418)” was tested, and the binding was “binds”.
